Reference: patent US20260209306A1 (ALIVEGEN, published 2026)
Where a chain is given by its changes, count along the chain named. These are yes or no findings as the source states them, for the method shown. Some results given as binding are weak or reduced against the parent protein; the word gives no strength. For some of these results: Where a sequence is shown, tags or fusion partners need not be part of it.

What was measured:
BMP9 [1] = biological target: T1, BMP9 (UniProt Q9UK05 320-429); assay: Octet Red BLI
T1 sequence (looked up): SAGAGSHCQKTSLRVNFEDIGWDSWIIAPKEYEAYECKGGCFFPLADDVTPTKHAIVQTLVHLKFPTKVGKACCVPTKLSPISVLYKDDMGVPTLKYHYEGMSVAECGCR

BMP9 [2] = biological target: T1, BMP9; assay: KinExA
BMP9 [3] = biological target: T1, BMP9; assay: automated ELISA on KinExA instrument; BMP9-coated beads; 100 pM, 1 nM and 10 nM protein; reference of the comparison

B1: AG-0003 hybrid ActRIIB ligand trap protein (Fc fusion, not shown: a dimerising Fc or GST)
chain: ETRECIYYNANWELERTNQSGLERCEGEQDKRLHCYASWRNSSGTIELVKKGCWLDDINCYDRTDCVEKKDSPEVYFCCCEGNFCNERFTHLPEAGGPEVTYEPPPTAPTGGGGSESKYGPPCPPCP
B1 was tested, and the binding (BMP9 [1]) was “binds”.

B2: AG-0005 hybrid ActRIIB ligand trap protein (Fc fusion, not shown: a dimerising Fc or GST)
chain: B1 chain with I58F, E74Q
In the case of B2, the binding (BMP9 [1]) is reported as “binds”.

B3: AG-0006 hybrid ActRIIB ligand trap protein (Fc fusion, not shown: a dimerising Fc or GST)
chain: B1 chain with I58F
With B3 the binding (BMP9 [1]) was “binds”.

B4: AG-0007 hybrid ActRIIB ligand trap protein (Fc fusion, not shown: a dimerising Fc or GST)
chain: B1 chain with I58F, T64Q, D65E
In the case of B4, the binding (BMP9 [1]) is reported as “binds”.

B5: AG-0008 hybrid ActRIIB ligand trap protein (Fc fusion, not shown: a dimerising Fc or GST)
chain: B1 chain with I58F, T64Q, D65E, E74Q
For B5, the binding (BMP9 [1]) was “binds”.

B6: wild-type ActRIIB-ECD-Fc fusion protein (Fc fusion, not shown: a dimerising Fc or GST)
chain: B1 chain with I58F, T64Q, D65E, E68A, K69T, K70E, D71E, S72N, E74Q
In the case of B6, the binding (BMP9 [2]) is reported as “binds” and the binding (BMP9 [3]) is reported as “binds”.
